The text below walks through data of patent US20090311271A1.

The chains behind the UniProt entries cited, without tags or fusion partners. Residues count along the entry.
UniProt Q9EQ09, residues 55-363: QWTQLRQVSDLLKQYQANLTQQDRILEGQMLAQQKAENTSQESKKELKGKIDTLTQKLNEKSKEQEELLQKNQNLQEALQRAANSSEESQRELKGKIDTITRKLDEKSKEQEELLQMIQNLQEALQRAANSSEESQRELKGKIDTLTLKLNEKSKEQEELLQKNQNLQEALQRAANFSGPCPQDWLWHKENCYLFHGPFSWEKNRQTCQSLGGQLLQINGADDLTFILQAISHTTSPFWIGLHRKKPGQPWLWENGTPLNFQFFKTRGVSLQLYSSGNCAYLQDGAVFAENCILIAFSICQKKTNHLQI

No constants are given. Whether binding was seen depends on the method and setting. Some binding calls cover weakened binding; strength is not graded here.

The test has as its target recombinant mouse LOX-1 Fc protein (mouse) (UniProt Q9EQ09). Kind of test: AlphaScreen competition, antibody titrated against Bio-oxLDL=0.5ug/ml and mFc-mLOX-1=0.3ug/ml. In general terms: Alpha assays give light when donor and acceptor beads are brought close together.

B1: LOX1-11A2 (antibody, V domains shown)
VH: EEQLVESGGGLVQPGGSLKLSCLASGFTLSNYGMNWIRQAPGKGLEWVASISSSSSYFYYADTVKGRFTISREDAKNTLNLQMTSLRSEDTALYYCARGITIAAGFTMDAWGQGTSVTVSS
VL: DIQMTQSPTSLSASLGETVSIECRASEDIYNNLAWYQQKSGKSPQLLIYYASTLQDGVPSRFSGSGSGTQFSLKISGMQPEDEGLYYCLQGSKYPRTFGGGTKLELKR
On to B1, for which the binding entry is “binds”.
